Data from US12729225B2, “Non-canonical SWI/SNF complex and uses thereof” (Dana-Farber Cancer Institute, Inc., priority 2018, dated 2026).

Tested on: mSWI/SNF complexes
Test: mSWI/SNF complex purification with HA-tagged baits and mass spectrometry (peptide counts)
Parameters: species or system human
Conditions: 293_HA-BRD7 bait purification, mass spectrometry; for Total: total peptide count per identified protein; for Unique: unique peptide count per identified protein

Molecule	Total	Unique
MCM3 (protein, UniProt P25205 2-808, looked up) DNA replication licensing …: AGTVVLDDVELREAQRDYLDFLDDEEDQGIYQSKVRELISDNQYRLIVNVNDLRRKNEKRANRLLNNAFEELVAFQRALKDFVASIDATYAKQYEEFYVGLEGSFGSKHVSPRTLTSCFLSCVVCVEGIVTKCSLVRPKVVRSVHYCPATKKTIERRYSDLTTLVAFPSSSVYPTKDEENNPLETEYGLSVYKDHQTITIQEMPEKAPAGQLPRSVDVILDDDLVDKAKPGDRVQVVGTYRCLPGKKGGYTSGTFRTVLIACNVKQMSKDAQPSFSAEDIAKIKKFSKTRSKDIFDQLAKSLAPSIHGHDYVKKAILCLLLGGVERDLENGSHIRGDINILLIGDPSVAKSQLLRYVLCTAPRAIPTTGRGSSGVGLTAAVTTDQETGERRLEAGAMVLADRGVVCIDEFDKMSDMDRTAIHEVMEQGRVTIAKAGIHARLNARCSVLAAANPVYGRYDQYKTPMENIGLQDSLLSRFDLLFIMLDQMDPEQDREISDHVLRMHRYRAPGEQDGDAMPLGSAVDILATDDPNFSQEDQQDTQIYEKHDNLLHGTKKKKEKMVSAAFMKKYIHVAKIIKPVLTQESATYIAEEYSRLRSQDSMSSDTARTSPVTARTLETLIRLATAHAKARMSKTVDLQDAEEAVELVQYAYFKKVLEKEKKRKKRSEDESETEDEEEKSQEDQEQKRKRRKTRQPDAKDGDSYDPYDFSDTEEEMPQVHTPKTADSQETKESQKVELSESRLKAFKVALLDVFREAHAQSIGMNRLTESINRDSEEPFSSVEIQAALSKMQDDNQVMVSEGIIFLI	1	1
CSN2 (protein, UniProt P05814 16-226, looked up) Beta-casein: RETIESLSSSEESITEYKQKVEKVKHEDQQQGEDEHQDKIYPSFQPQPLIYPFVEPIPYGFLPQNILPLAQPAVVLPVPQPEIMEVPKAKDTVYTKGRVMPVLKSPTIPFFDPQIPKLTDLENLHLPLPLLQPLMQQVPQPIPQTLALPPQPLWSVPQPKVLPIPQQVVPYPQRAVPVQALLLNQELLLNPTHQIYPVTQPLAPVHNPISV	1	1
RAB11FIP5 (protein, UniProt Q9BXF6 1-653, looked up) Rab11 family-interacting …: MALVRGAEPAAGPSRWLPTHVQVTVLRARGLRGKSSGAGSTSDAYTVIQVGREKYSTSVVEKTHGCPEWREECSFELPPGALDGLLRAQEADAGPAPWAASSAAACELVLTTMHRSLIGVDKFLGQATVALDEVFGAGRAQHTQWYKLHSKPGKKEKERGEIEVTIQFTRNNLSASMFDLSMKDKPRSPFSKIRDKMKGKKKYDLESASAILPSSAIEDPDLGSLGKMGKAKGFFLRNKLRKSSLTQSNTSLGSDSTLSSASGSLAYQGPGAELLTRSPSRSSWLSTEGGRDSAQSPKLFTHKRTYSDEANQMRVAPPRALLDLQGHLDAASRSSLCVNGSHIYNEEPQGPVRHRSSISGSLPSSGSLQAVSSRFSEEGPRSTDDTWPRGSRSNSSSEAVLGQEELSAQAKVLAPGASHPGEEEGARLPEGKPVQVATPIVASSEAVAEKEGARKEERKPRMGLFHHHHQGLSRSELGRRSSLGEKGGPILGASPHHSSSGEEKAKSSWFGLREAKDPTQKPSPHPVKPLSAAPVEGSPDRKQSRSSLSIALSSGLEKLKTVTSGSIQPVTQAPQAGQMVDTKRLKDSAVLDQSAKYYHLTHDELISLLLQRERELSQRDEHVQELESYIDRLLVRIMETSPTLLQIPPGPPK	1	1
AASS (protein, UniProt Q9UDR5 28-926, looked up) Alpha-aminoadipic …: VRREDVNAWERRAPLAPKHIKGITNLGYKVLIQPSNRRAIHDKDYVKAGGILQEDISEACLILGVKRPPEEKLMSRKTYAFFSHTIKAQEANMGLLDEILKQEIRLIDYEKMVDHRGVRVVAFGQWAGVAGMINILHGMGLRLLALGHHTPFMHIGMAHNYRNSSQAVQAVRDAGYEISLGLMPKSIGPLTFVFTGTGNVSKGAQAIFNELPCEYVEPHELKEVSQTGDLRKVYGTVLSRHHHLVRKTDAVYDPAEYDKHPERYISRFNTDIAPYTTCLINGIYWEQNTPRLLTRQDAQSLLAPGKFSPAGVEGCPALPHKLVAICDISADTGGSIEFMTECTTIEHPFCMYDADQHIIHDSVEGSGILMCSIDNLPAQLPIEATECFGDMLYPYVEEMILSDATQPLESQNFSPVVRDAVITSNGTLPDKYKYIQTLRESRERAQSLSMGTRRKVLVLGSGYISEPVLEYLSRDGNIEITVGSDMKNQIEQLGKKYNINPVSMDICKQEEKLGFLVAKQDLVISLLPYVLHPLVAKACITNKVNMVTASYITPALKELEKSVEDAGITIIGELGLDPGLDHMLAMETIDKAKEVGATIESYISYCGGLPAPEHSNNPLRYKFSWSPVGVLMNVMQSATYLLDGKVVNVAGGISFLDAVTSMDFFPGLNLEGYPNRDSTKYAEIYGISSAHTLLRGTLRYKGYMKALNGFVKLGLINREALPAFRPEANPLTWKQLLCDLVGISPSSEHDVLKEAVLKKLGGDNTQLEAAEWLGLLGDEQVPQAESILDALSKHLVMKLSYGPEEKDMIVMRDSFGIRHPSGHLEHKTIDLVAYGDINGFSAMAKTVGLPTAMAAKMLLDGEIGAKGLMGPFSKEIYGPILERIKAEGIIYTTQSTIKP	1	1
RNPS1 (protein, UniProt Q15287 1-305, looked up) RNA-binding protein with …: MDLSGVKKKSLLGVKENNKKSSTRAPSPTKRKDRSDEKSKDRSKDKGATKESSEKDRGRDKTRKRRSASSGSSSTRSRSSSTSSSGSSTSTGSSSGSSSSSASSRSGSSSTSRSSSSSSSSGSPSPSRRRHDNRRRSRSKSKPPKRDEKERKRRSPSPKPTKVHIGRLTRNVTKDHIMEIFSTYGKIKMIDMPVERMHPHLSKGYAYVEFENPDEAEKALKHMDGGQIDGQEITATAVLAPWPRPPPRRFSPPRRMLPPPPMWRRSPPRMRRRSRSPRRRSPVRRRSRSPGRRRHRSRSSSNSSR	1	1
EXD2 (protein, UniProt Q9NVH0 1-621, looked up) Exonuclease 3'-5' …: MSRQNLVALTVTTLLGVAVGGFVLWKGIQRRRRSKTSPVTQQPQQKVLGSRELPPPEDDQLHSSAPRSSWKERILKAKVVTVSQEAEWDQIEPLLRSELEDFPVLGIDCEWVNLEGKASPLSLLQMASPSGLCVLVRLPKLICGGKTLPRTLLDILADGTILKVGVGCSEDASKLLQDYGLVVRGCLDLRYLAMRQRNNLLCNGLSLKSLAETVLNFPLDKSLLLRCSNWDAETLTEDQVIYAARDAQISVALFLHLLGYPFSRNSPGEKNDDHSSWRKVLEKCQGVVDIPFRSKGMSRLGEEVNGEATESQQKPRNKKSKMDGMVPGNHQGRDPRKHKRKPLGVGYSARKSPLYDNCFLHAPDGQPLCTCDRRKAQWYLDKGIGELVSEEPFVVKLRFEPAGRPESPGDYYLMVKENLCVVCGKRDSYIRKNVIPHEYRKHFPIEMKDHNSHDVLLLCTSCHAISNYYDNHLKQQLAKEFQAPIGSEEGLRLLEDPERRQVRSGARALLNAESLPTQRKEELLQALREFYNTDVVTEEMLQEAASLETRISNENYVPHGLKVVQCHSQGGLRSLMQLESRWRQHFLDSMQPKHLPQQWSVDHNHQKLLRKFGEDLPIQLS	1	1
SARNP (protein, UniProt P82979 2-210, looked up) SAP domain-containing …: ATETVELHKLKLAELKQECLARGLETKGIKQDLIHRLQAYLEEHAEEEANEEDVLGDETEEEETKPIELPVKEEEPPEKTVDVAAEKKVVKITSEIPQTERMQKRAERFNVPVSLESKKAARAARFGISSVPTKGLSSDNKPMVNLDKLKERAQRFGLNVSSISRKSEDDEKLKKRKERFGIVTSSAGTGTTEDTEAKKRKRAERFGIA	1	1
NR2F1 (protein, UniProt P10589 1-423, looked up) COUP transcription factor 1: MAMVVSSWRDPQDDVAGGNPGGPNPAAQAARGGGGGAGEQQQQAGSGAPHTPQTPGQPGAPATPGTAGDKGQGPPGSGQSQQHIECVVCGDKSSGKHYGQFTCEGCKSFFKRSVRRNLTYTCRANRNCPIDQHHRNQCQYCRLKKCLKVGMRREAVQRGRMPPTQPNPGQYALTNGDPLNGHCYLSGYISLLLRAEPYPTSRYGSQCMQPNNIMGIENICELAARLLFSAVEWARNIPFFPDLQITDQVSLLRLTWSELFVLNAAQCSMPLHVAPLLAAAGLHASPMSADRVVAFMDHIRIFQEQVEKLKALHVDSAEYSCLKAIVLFTSDACGLSDAAHIESLQEKSQCALEEYVRSQYPNQPSRFGKLLLRLPSLRTVSSSVIEQLFFVRLVGKTPIETLIRDMLLSGSSFNWPYMSIQCS	1	1
